According to patent US7553630:
No constants are given. Whether binding was seen depends on the method and setting. Some binding calls cover weakened binding; strength is not graded here.

Chains of the proteins cited; added tags and fusions are not shown. Lines headed by an entry give the natural chain unless they say otherwise; changes in a name come on top. Residues count along the entry.
UniProt P13943, residues 55-468: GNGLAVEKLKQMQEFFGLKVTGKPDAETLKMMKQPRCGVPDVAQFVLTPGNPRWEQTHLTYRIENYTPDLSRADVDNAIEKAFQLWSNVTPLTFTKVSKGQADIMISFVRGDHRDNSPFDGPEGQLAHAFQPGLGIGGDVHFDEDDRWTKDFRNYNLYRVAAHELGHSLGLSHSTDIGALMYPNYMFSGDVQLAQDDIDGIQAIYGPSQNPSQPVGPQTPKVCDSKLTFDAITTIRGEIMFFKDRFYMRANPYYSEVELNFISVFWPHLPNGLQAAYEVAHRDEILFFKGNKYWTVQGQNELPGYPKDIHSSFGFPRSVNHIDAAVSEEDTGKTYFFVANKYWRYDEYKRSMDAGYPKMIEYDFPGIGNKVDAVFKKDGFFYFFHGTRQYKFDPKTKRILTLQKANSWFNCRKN
UniProt P16035: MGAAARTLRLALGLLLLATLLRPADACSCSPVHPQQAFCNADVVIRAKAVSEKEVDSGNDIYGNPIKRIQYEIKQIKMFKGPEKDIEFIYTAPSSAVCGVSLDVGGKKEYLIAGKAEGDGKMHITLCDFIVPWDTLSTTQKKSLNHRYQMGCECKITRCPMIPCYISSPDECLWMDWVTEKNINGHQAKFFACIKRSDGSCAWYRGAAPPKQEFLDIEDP

Biological target: plasmin-treated rabbit fibroblast interstitial procollagenase (46-kDa intermediate) (rabbit) (UniProt P13943)
Assay: SDS-PAGE of unheated samples

binding: binds
Substance: CHO cell-derived recombinant human metalloproteinase inhibitor (MI) (from UniProt P16035 27-220)
